These are yes or no findings as the source states them, for the method shown. Binding seen in cells or lysates may run through a third protein. These calls come from enrichment with a bait or labelling near it, and not all partners need be listed.
What was measured:
[1] = target: Hu protein R (HuR RNA binding protein) (human (endogenous in Jurkat and primary human T cells)) (UniProt Q15717); experiment: affinity purification with mass spectrometry; HuR immunoprecipitate from Jurkat T cell lysates (anti-HuR antibody; isotype control MOPC-21), SDS-PAGE, gel slices by molecular weight range, trypsin digest, LC-MS/MS, Mascot search
HuR-GST = HuR-GST (UniProt Q15717); experiment: affinity purification with mass spectrometry; HuR-GST pulldown and iTRAQ of phosphopeptides, resting and ICAM-1-stimulated cells; no methods given

Amino acid sequences for entries named in this document (tags omitted). A change or cut given only in a name is not applied to a line headed by its entry. Chains listed by the source or under a name are the forms on record and can include a tag or linker.
RNA-binding protein Raly isoform 2 (Q9UKM9-2, form named): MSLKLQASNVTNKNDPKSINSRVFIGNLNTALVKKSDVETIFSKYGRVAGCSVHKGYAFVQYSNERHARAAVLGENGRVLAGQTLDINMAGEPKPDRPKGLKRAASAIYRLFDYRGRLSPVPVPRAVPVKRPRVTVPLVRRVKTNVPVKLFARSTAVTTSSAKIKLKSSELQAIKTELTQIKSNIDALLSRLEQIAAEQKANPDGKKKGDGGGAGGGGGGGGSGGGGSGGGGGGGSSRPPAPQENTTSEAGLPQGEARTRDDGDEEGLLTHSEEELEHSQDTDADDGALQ
UniProt P31943: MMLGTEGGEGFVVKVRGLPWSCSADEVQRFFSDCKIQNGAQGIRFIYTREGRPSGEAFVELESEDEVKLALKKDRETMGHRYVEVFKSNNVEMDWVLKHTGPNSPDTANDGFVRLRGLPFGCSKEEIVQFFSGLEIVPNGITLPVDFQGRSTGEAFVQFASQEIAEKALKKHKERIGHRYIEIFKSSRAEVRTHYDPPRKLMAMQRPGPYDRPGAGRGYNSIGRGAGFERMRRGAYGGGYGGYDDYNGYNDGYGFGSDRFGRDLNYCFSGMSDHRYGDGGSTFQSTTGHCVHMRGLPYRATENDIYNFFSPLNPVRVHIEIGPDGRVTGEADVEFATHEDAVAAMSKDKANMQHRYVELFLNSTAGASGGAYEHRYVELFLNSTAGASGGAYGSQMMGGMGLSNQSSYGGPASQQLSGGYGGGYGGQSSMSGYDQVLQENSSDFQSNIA
UniProt P68371: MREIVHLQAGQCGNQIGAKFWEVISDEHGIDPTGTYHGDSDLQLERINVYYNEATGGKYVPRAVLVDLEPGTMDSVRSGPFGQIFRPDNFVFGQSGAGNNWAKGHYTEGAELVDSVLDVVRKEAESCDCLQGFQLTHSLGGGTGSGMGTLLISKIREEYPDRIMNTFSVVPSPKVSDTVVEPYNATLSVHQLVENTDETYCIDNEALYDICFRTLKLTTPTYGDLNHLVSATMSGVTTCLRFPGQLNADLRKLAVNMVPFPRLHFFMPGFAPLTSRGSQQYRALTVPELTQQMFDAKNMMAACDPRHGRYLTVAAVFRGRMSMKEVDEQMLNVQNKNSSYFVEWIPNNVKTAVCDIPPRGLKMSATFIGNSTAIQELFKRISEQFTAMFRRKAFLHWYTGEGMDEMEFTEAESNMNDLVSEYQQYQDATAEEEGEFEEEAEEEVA

Substance | binding [1] | binding (HuR-GST)
RNA-binding protein Raly isoform 2 (from UniProt Q9UKM9-2 1-290) | binds | 
heterogeneous nuclear ribonucleoprotein H1 (from UniProt P31943 1-449) |  | binds
heterogeneous nuclear ribonucleoprotein K (from UniProt P61978 1-463) |  | binds
tubulin, beta 2C (from UniProt P68371 1-445) | binds | 

Reference: article PMC6065199
